Assay [1] concerns the target T1, σ factor σ^B (Mycobacterium smegmatis) (Mycobacterium smegmatis (endogenous in M. smegmatis mc2 155)) (UniProt A0QVZ5).
T1 sequence: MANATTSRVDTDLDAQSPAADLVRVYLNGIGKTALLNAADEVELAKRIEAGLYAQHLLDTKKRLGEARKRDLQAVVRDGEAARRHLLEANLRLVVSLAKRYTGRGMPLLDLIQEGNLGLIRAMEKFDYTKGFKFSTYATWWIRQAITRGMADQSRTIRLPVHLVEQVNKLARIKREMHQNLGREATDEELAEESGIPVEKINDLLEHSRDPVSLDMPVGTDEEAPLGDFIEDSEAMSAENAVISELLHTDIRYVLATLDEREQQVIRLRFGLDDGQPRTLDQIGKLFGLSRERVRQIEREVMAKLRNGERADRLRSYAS
Briefly: co-IP; M. smegmatis lysates (exponential, stationary; also mitomycin C-treated cells); anti-RNAP β [8RB13] or anti-σ70 [2G10] on Protein G plus agarose, 16-18 h at 4°C, 20 mM Tris-HCl pH 7.9, 150 mM KCl, 1 mM MgCl2; silver-stained SDS-PAGE, MALDI-TOF, western blot. Background: Immunoblotting shows a protein as a band on a membrane.

Amino acid sequences for entries named in this document (tags omitted). A change or cut given only in a name is not applied to a line headed by its entry.
UniProt P9WGI1: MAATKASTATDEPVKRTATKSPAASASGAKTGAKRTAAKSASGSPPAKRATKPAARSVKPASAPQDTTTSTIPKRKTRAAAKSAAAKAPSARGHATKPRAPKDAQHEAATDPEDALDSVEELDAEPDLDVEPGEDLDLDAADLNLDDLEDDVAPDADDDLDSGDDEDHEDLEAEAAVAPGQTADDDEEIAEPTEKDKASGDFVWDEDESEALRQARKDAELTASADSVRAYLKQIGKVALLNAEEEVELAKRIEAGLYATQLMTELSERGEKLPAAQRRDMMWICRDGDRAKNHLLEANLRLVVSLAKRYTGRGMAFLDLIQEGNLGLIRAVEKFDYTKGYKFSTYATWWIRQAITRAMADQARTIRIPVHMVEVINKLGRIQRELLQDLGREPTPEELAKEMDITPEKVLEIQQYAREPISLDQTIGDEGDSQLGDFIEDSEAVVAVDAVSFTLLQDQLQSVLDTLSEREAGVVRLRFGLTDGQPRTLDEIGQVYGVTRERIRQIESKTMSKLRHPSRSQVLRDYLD
UniProt P9WGY9: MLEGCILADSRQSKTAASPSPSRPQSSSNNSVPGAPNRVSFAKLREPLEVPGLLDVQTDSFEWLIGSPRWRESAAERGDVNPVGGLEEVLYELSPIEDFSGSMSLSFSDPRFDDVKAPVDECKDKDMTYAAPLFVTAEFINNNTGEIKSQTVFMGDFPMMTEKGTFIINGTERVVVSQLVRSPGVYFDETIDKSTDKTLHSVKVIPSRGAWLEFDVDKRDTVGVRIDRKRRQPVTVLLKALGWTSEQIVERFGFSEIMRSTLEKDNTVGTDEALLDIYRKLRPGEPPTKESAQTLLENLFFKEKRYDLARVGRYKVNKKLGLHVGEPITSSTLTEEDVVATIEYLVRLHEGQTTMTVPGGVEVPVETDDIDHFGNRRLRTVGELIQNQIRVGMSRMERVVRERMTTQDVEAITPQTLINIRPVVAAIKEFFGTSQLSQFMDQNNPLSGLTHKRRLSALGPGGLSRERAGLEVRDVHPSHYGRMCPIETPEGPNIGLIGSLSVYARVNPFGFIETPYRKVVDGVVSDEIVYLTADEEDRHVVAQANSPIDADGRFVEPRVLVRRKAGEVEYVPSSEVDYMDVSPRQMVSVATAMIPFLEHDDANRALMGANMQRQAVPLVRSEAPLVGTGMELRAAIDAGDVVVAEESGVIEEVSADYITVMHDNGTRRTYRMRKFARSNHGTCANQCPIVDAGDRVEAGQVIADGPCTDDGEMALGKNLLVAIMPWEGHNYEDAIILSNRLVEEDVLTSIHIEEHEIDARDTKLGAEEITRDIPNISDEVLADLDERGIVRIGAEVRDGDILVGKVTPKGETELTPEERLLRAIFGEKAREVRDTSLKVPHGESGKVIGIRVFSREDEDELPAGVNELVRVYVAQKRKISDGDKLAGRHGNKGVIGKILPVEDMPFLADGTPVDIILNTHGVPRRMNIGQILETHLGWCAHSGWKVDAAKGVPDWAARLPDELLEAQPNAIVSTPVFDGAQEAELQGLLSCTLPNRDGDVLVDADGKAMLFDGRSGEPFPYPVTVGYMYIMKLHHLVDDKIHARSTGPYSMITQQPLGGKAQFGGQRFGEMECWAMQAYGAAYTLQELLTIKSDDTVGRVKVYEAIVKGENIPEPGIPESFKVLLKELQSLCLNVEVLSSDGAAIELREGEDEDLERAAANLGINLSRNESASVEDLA
UniProt A0QSL8: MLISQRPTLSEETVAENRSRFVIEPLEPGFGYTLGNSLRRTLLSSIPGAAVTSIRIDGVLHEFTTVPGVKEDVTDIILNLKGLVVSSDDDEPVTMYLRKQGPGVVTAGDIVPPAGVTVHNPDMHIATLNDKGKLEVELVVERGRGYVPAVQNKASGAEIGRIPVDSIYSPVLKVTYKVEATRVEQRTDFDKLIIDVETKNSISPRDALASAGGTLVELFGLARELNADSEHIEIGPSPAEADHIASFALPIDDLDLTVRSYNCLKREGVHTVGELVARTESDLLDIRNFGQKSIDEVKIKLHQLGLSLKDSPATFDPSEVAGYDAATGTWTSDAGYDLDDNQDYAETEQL
UniProt P9WGY7: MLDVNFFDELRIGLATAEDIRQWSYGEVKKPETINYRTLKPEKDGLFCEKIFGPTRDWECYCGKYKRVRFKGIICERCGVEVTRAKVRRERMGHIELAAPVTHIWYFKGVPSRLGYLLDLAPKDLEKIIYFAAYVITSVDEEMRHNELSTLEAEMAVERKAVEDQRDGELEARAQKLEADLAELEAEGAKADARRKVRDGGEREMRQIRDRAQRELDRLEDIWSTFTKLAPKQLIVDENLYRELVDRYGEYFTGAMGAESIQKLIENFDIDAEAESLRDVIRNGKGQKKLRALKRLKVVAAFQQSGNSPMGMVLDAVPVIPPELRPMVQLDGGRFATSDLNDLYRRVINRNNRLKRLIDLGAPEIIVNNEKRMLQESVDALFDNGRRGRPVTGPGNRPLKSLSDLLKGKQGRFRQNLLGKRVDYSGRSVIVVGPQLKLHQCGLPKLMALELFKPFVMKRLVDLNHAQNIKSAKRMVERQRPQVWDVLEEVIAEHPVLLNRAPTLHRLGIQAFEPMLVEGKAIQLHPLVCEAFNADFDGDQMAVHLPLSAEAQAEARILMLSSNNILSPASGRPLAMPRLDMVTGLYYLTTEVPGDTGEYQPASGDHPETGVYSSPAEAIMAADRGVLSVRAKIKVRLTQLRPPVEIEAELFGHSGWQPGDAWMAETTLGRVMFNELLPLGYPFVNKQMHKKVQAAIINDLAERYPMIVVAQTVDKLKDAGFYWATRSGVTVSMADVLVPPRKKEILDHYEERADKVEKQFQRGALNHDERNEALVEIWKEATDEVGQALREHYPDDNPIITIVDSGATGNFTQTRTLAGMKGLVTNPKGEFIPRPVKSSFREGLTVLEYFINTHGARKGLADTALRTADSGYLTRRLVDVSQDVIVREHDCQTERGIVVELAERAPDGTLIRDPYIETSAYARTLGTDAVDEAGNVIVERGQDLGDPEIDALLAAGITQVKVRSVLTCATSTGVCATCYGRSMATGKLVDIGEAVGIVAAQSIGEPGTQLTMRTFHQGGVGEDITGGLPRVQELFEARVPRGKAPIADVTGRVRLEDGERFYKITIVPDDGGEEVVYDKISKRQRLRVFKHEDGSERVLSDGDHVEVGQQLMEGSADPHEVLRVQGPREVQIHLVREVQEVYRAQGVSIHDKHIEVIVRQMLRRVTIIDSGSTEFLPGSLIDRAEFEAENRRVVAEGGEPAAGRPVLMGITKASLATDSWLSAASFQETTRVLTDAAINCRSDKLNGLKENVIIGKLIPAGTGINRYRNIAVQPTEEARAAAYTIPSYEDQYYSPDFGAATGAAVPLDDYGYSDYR
UniProt P9WGZ1: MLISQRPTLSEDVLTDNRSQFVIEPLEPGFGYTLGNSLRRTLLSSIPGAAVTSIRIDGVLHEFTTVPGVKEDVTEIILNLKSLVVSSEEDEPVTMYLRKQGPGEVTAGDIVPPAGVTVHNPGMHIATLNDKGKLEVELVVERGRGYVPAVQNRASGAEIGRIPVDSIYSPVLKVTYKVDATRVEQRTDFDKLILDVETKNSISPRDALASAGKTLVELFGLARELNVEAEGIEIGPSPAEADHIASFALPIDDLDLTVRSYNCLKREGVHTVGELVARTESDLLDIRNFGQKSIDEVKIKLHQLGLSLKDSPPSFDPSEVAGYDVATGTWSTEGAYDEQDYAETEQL

The target in assay [2] is primary σ factor σ^A (Mycobacterium tuberculosis) (Mycobacterium tuberculosis (endogenous in M. tuberculosis H37Rv)) (UniProt P9WGI1). As to the kind of experiment: co-IP; M. tuberculosis H37Rv early stationary phase lysate; anti-RNAP β [8RB13] or anti-σ70 [2G10] on Protein G plus agarose, 4 h at 4°C, 20 mM Tris-HCl pH 7.9, 150 mM KCl, 1 mM MgCl2; SDS-PAGE and western blot.

Assay [3] deals with RNA polymerase β subunit (Mycobacterium tuberculosis) (Mycobacterium tuberculosis (endogenous in M. tuberculosis H37Rv)) (UniProt P9WGY9). The description is as above.

These are yes or no findings as the source states them, for the method shown. In cells and extracts the contact can be indirect. Some entries that bind do so weakly or less than the wild type. For some of these results: Tags and fused reporters may be left off the sequences shown.

“RNA polymerase (RNAP) of Mycobacterium smegmatis, named as a whole (from UniProt A0QSL8 1-350; P60281 1-1169; A0QS66 1-1317; A0QWT1 1-107) (complex)”: the binding entry in assay [1] is recorded as “binds”.
Consider “RNA polymerase β′ subunit (Mycobacterium tuberculosis) (from UniProt P9WGY7 1-1316)”, for which the binding entry in assay [2] and in assay [3] was “binds” in each case.
Turning to “RNA polymerase α subunit (Mycobacterium tuberculosis) (from UniProt P9WGZ1 1-347)”, the binding entry in assay [3] is listed as “binds”.

Values taken from publication PMC11077062.
